From paper PMC4207615 come the findings set out here.

Sequences of proteins named here, by UniProt entry; tags and fusion partners are left off.
UniProt Q61602: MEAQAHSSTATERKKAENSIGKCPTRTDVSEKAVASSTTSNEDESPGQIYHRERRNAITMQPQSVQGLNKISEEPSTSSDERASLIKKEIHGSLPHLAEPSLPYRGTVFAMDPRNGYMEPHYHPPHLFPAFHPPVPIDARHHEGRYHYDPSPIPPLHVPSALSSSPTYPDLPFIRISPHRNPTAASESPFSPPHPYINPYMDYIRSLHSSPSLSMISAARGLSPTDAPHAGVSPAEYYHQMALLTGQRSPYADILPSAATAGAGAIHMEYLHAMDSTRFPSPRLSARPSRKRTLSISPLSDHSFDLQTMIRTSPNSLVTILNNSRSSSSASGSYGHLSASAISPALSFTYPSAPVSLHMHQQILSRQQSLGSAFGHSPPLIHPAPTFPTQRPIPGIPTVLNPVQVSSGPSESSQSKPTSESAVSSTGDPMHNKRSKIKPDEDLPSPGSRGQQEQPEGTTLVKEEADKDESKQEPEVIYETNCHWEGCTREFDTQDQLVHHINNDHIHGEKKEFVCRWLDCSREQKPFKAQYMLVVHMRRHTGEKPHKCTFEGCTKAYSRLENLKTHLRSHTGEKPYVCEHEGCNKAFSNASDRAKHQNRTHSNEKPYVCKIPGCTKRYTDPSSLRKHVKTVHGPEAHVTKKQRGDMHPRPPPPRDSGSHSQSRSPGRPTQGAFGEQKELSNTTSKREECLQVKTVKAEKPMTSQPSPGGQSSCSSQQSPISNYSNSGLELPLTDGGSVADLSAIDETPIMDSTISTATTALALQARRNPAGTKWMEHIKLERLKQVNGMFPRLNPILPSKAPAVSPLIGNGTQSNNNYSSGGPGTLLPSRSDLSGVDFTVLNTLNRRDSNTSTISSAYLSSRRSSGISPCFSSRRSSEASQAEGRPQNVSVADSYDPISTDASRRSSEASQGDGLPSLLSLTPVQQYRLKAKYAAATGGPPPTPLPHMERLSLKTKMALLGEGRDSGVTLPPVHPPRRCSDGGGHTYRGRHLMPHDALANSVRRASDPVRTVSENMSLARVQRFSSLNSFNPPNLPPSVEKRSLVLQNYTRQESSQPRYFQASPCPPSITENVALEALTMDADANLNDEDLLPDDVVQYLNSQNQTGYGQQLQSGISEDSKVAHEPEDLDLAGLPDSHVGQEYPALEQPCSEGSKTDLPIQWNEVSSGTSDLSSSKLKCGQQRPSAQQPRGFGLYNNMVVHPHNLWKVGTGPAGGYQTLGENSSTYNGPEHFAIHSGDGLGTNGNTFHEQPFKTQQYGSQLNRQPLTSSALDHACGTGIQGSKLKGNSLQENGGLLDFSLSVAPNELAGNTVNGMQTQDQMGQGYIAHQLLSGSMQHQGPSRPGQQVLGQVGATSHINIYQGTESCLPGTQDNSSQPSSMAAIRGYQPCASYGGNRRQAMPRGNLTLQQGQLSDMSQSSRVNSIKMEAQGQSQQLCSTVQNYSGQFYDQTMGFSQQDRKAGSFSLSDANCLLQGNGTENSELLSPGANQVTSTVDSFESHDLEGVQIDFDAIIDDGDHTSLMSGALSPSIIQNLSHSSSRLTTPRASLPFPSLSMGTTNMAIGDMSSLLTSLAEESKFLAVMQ
UniProt Q0VGT2: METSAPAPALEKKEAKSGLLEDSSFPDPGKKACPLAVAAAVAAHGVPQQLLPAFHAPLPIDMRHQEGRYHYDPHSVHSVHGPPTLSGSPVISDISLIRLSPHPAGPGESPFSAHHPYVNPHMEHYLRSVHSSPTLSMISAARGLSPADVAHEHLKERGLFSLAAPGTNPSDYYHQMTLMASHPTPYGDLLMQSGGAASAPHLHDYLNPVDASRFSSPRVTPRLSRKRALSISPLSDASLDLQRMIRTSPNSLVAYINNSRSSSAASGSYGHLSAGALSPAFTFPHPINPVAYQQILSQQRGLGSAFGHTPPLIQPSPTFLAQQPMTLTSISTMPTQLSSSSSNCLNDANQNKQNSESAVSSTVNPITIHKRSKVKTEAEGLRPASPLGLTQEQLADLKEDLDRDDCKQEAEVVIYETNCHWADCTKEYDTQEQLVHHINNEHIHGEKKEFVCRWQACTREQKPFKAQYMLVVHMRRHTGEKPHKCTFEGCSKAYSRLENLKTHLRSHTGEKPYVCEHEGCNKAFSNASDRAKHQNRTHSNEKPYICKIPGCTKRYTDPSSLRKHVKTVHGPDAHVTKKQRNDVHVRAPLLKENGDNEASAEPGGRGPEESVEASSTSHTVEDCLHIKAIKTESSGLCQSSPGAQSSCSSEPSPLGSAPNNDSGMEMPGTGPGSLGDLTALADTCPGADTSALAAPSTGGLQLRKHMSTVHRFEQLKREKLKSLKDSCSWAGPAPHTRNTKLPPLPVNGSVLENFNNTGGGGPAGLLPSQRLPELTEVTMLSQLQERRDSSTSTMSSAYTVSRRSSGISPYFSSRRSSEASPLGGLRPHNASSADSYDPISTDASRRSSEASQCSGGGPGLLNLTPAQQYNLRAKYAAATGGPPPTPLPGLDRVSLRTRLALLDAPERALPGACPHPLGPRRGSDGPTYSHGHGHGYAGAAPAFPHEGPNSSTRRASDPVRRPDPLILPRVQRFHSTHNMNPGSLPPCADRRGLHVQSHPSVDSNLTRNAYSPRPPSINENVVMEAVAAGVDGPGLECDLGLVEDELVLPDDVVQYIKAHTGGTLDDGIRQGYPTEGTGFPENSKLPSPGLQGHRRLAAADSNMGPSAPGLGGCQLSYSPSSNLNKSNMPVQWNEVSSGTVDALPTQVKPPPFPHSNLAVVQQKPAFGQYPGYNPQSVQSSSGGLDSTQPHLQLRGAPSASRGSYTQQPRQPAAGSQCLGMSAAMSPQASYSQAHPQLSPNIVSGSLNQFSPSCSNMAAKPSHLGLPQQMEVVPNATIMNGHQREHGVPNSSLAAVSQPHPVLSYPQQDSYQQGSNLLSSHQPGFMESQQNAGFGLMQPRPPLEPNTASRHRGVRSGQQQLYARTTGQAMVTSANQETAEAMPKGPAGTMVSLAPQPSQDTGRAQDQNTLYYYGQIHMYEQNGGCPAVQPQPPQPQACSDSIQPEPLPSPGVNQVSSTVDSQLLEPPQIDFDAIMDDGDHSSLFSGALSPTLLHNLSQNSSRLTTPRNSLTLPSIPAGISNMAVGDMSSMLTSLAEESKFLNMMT

No constants are given. Whether binding was seen depends on the method and setting. In cells and extracts the contact can be indirect. Some results given as binding are weak or reduced against the parent protein; the word gives no strength.

For the assay, the target named is T1, Sufu (mouse (endogenous in MEFs)) (UniProt Q9Z0P7).
T1 sequence: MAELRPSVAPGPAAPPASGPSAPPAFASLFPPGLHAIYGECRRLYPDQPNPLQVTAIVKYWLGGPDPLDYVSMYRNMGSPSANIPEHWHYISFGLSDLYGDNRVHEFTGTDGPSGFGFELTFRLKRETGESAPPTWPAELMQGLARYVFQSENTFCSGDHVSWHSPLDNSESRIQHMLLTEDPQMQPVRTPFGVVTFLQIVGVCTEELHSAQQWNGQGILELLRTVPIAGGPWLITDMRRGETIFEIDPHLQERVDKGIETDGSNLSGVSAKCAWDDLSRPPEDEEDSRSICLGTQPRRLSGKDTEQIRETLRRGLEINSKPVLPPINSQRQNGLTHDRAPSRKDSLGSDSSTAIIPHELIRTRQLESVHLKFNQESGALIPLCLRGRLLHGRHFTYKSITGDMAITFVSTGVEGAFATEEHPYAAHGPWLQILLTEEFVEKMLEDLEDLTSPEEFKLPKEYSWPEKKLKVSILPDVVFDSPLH
Description: co-IP; endogenous proteins of wild-type and hop/hop MEFs treated 5 h with SAG (400 nM) and bortezomib (2 uM) or DMSO (0.02%); lysis in 50 mM Tris pH 7.5, 300 mM NaCl, 2% NP-40, 0.25% deoxycholate; precipitated with anti-Sufu antibody overnight at 4°C and Dynabeads Protein G; blotted for Gli3, Gli2, Sufu.

Take “full-length Gli3 protein (Gli3-F) (from UniProt Q61602 1-1583)”: the binding result is reported as “binds”.

“full-length Gli2 (Gli2-F) (from UniProt Q0VGT2 1-1544)”: the binding entry is reported as “binds”.
